Results on 2 molecules are retold here after patent US10161932B2, “Azetidine-substituted fluorescent compounds” (HOWARD HUGHES MEDICAL INSTITUTE, priority 2014, dated 2018).

Holding throughout (assay type): cell-based
For data set [1], the system named is HaloTag-H2B. The experiment in a line: dSTORM imaging of fixed U2OS cells expressing HaloTag-H2B. The note with it: fixed U2OS cell.
Data set [2] concerns HaloTag-H2B. Description: Single-molecule imaging of labeled HaloTag-H2B (brightness, track length). The conditions noted are these: ligand <50 nM.
For a further data set, the system named is HaloTag-tubulin. Description: dSTORM imaging of live HeLa cells expressing HaloTag-tubulin. The note with it: live HeLa cell.

For `O=C(NCCOCCOCCCCCCCl)c1ccc(C(=O)[O-])c(-c2c3ccc(=[N+]4CCC4)cc-3oc3cc(N4CCC4)ccc23)c1` [Example 21, 4-((2-(2-((6-Chlorohexyl)oxy)ethoxy)ethyl)carbamoyl)-2-(3,6-di(azetidin-1-yl)xanthylium-9-yl)benzoate], in the data set on HaloTag-H2B [1], the mean localization error stood at 17.2 nm and the “median localization error (σ)” value turned out to be 14.1 nm. Also, in the data set on HaloTag-H2B [2], the “mean track length (photostability)” value worked out at 1.6 s.
For the molecule `C[Si]1(C)C2=CC(=[N+]3CCC3)C=CC2=C(c2cc(C(=O)NCCOCCOCCCCCCCl)ccc2C(=O)[O-])c2ccc(N3CCC3)cc21` [Example 35, 4-((2-(2-((6-Chlorohexyl)oxy)ethoxy)ethyl)carbamoyl)-2-(3,7-di(azetidin-1-yl)-5,5-dimethyldibenzo[b,e]silin-10-ylium-10(5H)-yl)benzoate], the mean localization error with HaloTag-H2B [1] turned out to be 11.1 nm; in the data set with HaloTag-tubulin it was 9.23 nm. Moreover, the “median localization error (σ)” value worked out at 8.4 nm with HaloTag-H2B [1], 7.14 nm with HaloTag-tubulin (listed as JF646-HaloTag ligand) and 7.1 nm with HaloTag-tubulin (listed as JF646 ligand).
